PubChem BioAssay AID686938 – Drosophila RNAi Screening Center – 2013
Purpose: 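Fly genes required for calcium entry once internal stores are emptied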 (primary screen). System: Drosophila S2R+ cells. Reagents: long dsRNA against Drosophila genes, about 0.25 µg dsRNA per well, roughly 10,000 cells. Duration: 5 days of knock-down before the calcium assay. Conditions: thapsigargin (SERCA pump blocker) to empty calcium stores; entry signal taken 4 min after adding it. Read-out: 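Duplicate raw fluo-4 intensities per well from a plate reader, at rest and four minutes after thapsigargin emptied calcium stores; entry-to-rest ratio filled for only some wells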. Scale: calcium entry signal: higher = stronger calcium signal after store depletion; entry to resting ratio: higher = more calcium entry relative to resting level; resting calcium signal: higher = higher resting calcium signal. Call rule: 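Called when the plate z-score of the entry-to-rest ratio, mean of duplicates, falls below −3; wells with low overall dye signal (Fmax z below −2) or more than five off-targets excluded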. Meaning of the calls: active = strongly reduced calcium entry; inactive = no strong reduction.
In all, the deposit lists about 23,000 reagents; this is a random part of those with a known target gene and a result. Of all reagents, 75 (0.33%) were called active. 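Raw plate signals without normalisation; calls rest on plate z-scores that were not deposited; ratio present for only 364 wells.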 Unmarked entries are inactive. Reagents against one gene are numbered here. Not stated in the record: the dose of the treatment.

The first 6 entries, ahead of the listing:
predicted target | dsRNA no. | calcium entry signal, replicate 1 (fluorescence units) | calcium entry signal, replicate 2 (fluorescence units) | entry to resting ratio | resting calcium signal, replicate 1 (fluorescence units) | resting calcium signal, replicate 2 (fluorescence units)
bip1 | 1 | 4.41e7 | 3.50e7 | – | 3.13e7 | 1.60e7
inaF-A | 1 | 3.17e7 | 4.62e7 | – | 1.66e7 | 1.93e7
CG13243 | 1 | 4.66e7 | 4.01e7 | – | 1.98e7 | 1.67e7
Idgf3 | 1 | 3.68e7 | – | – | 1.80e7 | –
CG33784 | 1 | 3.56e7 | 6.20e7 | – | 1.70e7 | 2.73e7
CG15597 | 1 | 3.75e7 | 1.82e7 | – | 1.80e7 | 9.71e6

The list itself, from the start:
predicted target | dsRNA no. | calcium entry signal, replicate 1 (fluorescence units) | calcium entry signal, replicate 2 (fluorescence units) | entry to resting ratio | resting calcium signal, replicate 1 (fluorescence units) | resting calcium signal, replicate 2 (fluorescence units)
bip1 | 1 | 4.41e7 | 3.50e7 | – | 3.13e7 | 1.60e7
inaF-A | 1 | 3.17e7 | 4.62e7 | – | 1.66e7 | 1.93e7
CG13243 | 1 | 4.66e7 | 4.01e7 | – | 1.98e7 | 1.67e7
Idgf3 | 1 | 3.68e7 | – | – | 1.80e7 | –
CG33784 | 1 | 3.56e7 | 6.20e7 | – | 1.70e7 | 2.73e7
CG15597 | 1 | 3.75e7 | 1.82e7 | – | 1.80e7 | 9.71e6
bves | 1 | 3.39e7 | 4.74e7 | – | 1.86e7 | 2.09e7
bves | 2 | 3.61e7 | 4.48e7 | – | 1.90e7 | 2.03e7
bves | 3 | 3.49e7 | 3.99e7 | – | 2.01e7 | 1.91e7
dpr5 | 1 | 3.24e7 | 3.50e7 | – | 1.57e7 | 1.82e7
CG8229 | 1 | 5.72e7 | 4.37e7 | – | 2.46e7 | 1.93e7
mRpL44 | 1 | 2.62e7 | 3.42e7 | – | 1.07e7 | 1.47e7
CG10237 | 1 | 5.39e7 | – | – | 2.55e7 | –
CG43181 | 1 | 4.48e7 | 4.63e7 | – | 2.49e7 | 1.99e7
CG13376 | 1 | 3.95e7 | 5.80e7 | 2.1 | 1.89e7 | 2.44e7
wrapper | 1 | 3.51e7 | – | – | 1.64e7 | –
RpS21 | 1 | 1.33e7 | 2.78e7 | – | 9.85e6 | 1.51e7
Cpr23B | 1 | 2.80e7 | 4.04e7 | – | 1.57e7 | 1.67e7
CG11000 | 1 | 3.66e7 | 4.67e7 | – | 1.82e7 | 2.17e7
CG11000 | 2 | 3.68e6 | 3.52e7 | – | 3.59e6 | 1.58e7
Or22b | 1 | 3.51e7 | 5.46e7 | – | 1.75e7 | 2.09e7
CG5131 | 1 | 5.38e7 | 3.48e7 | – | 2.38e7 | 1.65e7
SoYb | 1 | 3.81e7 | 4.84e7 | – | 1.60e7 | 2.06e7
row | 1 | 2.13e7 | 2.23e7 | – | 1.05e7 | 1.13e7
row | 2 | 3.20e7 | 3.01e7 | – | 1.70e7 | 1.54e7
Mys45A | 1 | 2.99e7 | 2.61e7 | – | 1.49e7 | 1.43e7
Jhbp7 | 1 | 4.68e7 | 4.13e7 | – | 2.21e7 | 1.72e7
CG6621 | 1 | 4.35e7 | 4.06e7 | – | 1.95e7 | 1.59e7
CG34265 | 1 | 2.28e7 | 3.09e7 | – | 1.11e7 | 1.31e7
zen2 | 1 | 4.18e7 | 3.16e7 | – | 2.11e7 | 1.61e7
CngB | 1 | 2.44e7 | – | – | 1.33e7 | –
Dhpr | 1 | 2.98e7 | 3.80e7 | – | 1.49e7 | 1.56e7
Vav | 1 | 5.39e7 | 6.99e7 | – | 3.01e7 | 3.39e7
RpL7A | 1 | 1.05e7 | 1.13e7 | – | 8.52e6 | 8.79e6
rept | 1 | 2.49e7 | 1.89e7 | – | 1.73e7 | 1.15e7
CG8613 | 1 | 3.88e7 | 4.52e7 | – | 1.59e7 | 1.97e7
Obp56e | 1 | 5.22e7 | 5.15e7 | – | 2.08e7 | 2.32e7
2mit | 1 | 2.42e7 | 2.96e7 | – | 1.17e7 | 4.29e7
2mit | 2 | 2.54e7 | 2.79e7 | – | 1.31e7 | 4.61e7
ref(2)P | 1 | 4.74e7 | 4.53e7 | – | 1.94e7 | 1.91e7
CG31300 | 1 | 2.97e7 | 5.39e7 | – | 1.68e7 | 2.25e7
rempA | 1 | 2.29e7 | 2.72e7 | – | 1.16e7 | 1.23e7
CG10565 | 1 | 4.11e7 | 4.32e7 | – | 1.85e7 | 2.88e7
l(2)37Cd | 1 | 5.72e7 | – | – | 2.56e7 | –
SKIP | 1 | 3.47e7 | 3.94e7 | – | 6.23e7 | 1.88e7
SKIP | 2 | 4.32e7 | 4.54e7 | – | 6.78e7 | 2.11e7
SKIP | 3 | 4.70e7 | 4.42e7 | – | 4.91e7 | 2.09e7
SKIP | 4 | 2.94e7 | 4.94e7 | – | 1.46e7 | 2.46e7
SKIP | 5 | 4.18e7 | 4.19e7 | – | 5.93e7 | 2.04e7
CG10907 | 1 | 2.46e7 | 3.03e7 | – | 1.28e7 | 1.44e7
CCT6 | 1 | 2.70e7 | 2.44e7 | – | 1.53e7 | 1.41e7
Prosbeta2R1 | 1 | 3.27e7 | 4.58e7 | – | 1.71e7 | 2.11e7
Tsf3 | 1 | 3.34e7 | 3.66e7 | – | 1.59e7 | 1.84e7
Ca-alpha1D | 1 | 4.33e7 | – | – | 2.16e7 | –
Smr | 1 | 1.86e7 | 2.11e7 | – | 1.19e7 | 1.26e7
Smr | 2 | 2.14e7 | 2.91e7 | – | 1.43e7 | 1.83e7
Smr | 3 | 5.09e7 | 3.17e7 | – | 2.86e7 | 1.54e7
Optix | 1 | 2.87e7 | 5.80e7 | – | 1.48e7 | 3.14e7
Optix | 2 | 3.21e7 | 3.16e7 | – | 1.42e7 | 1.49e7
Optix | 3 | 3.41e7 | 4.44e7 | – | 1.59e7 | 2.45e7
unk | 1 | 3.97e7 | 3.56e7 | – | 1.95e7 | 1.61e7
CG9743 | 1 | 2.83e7 | 2.92e7 | – | 1.42e7 | 1.37e7
CG9676 | 1 | 3.00e7 | 3.18e7 | – | 1.50e7 | 1.32e7
CG12096 | 1 | 3.51e7 | 3.15e7 | – | 2.19e7 | 1.51e7
Spn100A | 1 | 5.62e7 | 5.30e7 | – | 2.56e7 | 2.50e7
sw | 1 | 3.49e7 | 3.79e7 | – | 1.81e7 | 1.98e7
pav | 1 | 3.34e7 (active) | 3.06e7 | – | 2.06e7 | 2.09e7
Hsp67Bc | 1 | 2.09e7 | 3.45e7 | – | 1.18e7 | 1.44e7
Hr3 | 1 | 3.81e7 | 4.11e7 | – | 1.82e7 | 1.66e7
Hr3 | 2 | 4.06e7 | 4.20e7 | – | 1.73e7 | 1.86e7
Tango4 | 1 | 2.06e7 | 2.33e7 | – | 1.30e7 | 1.48e7
Lk6 | 1 | 3.34e7 | 3.16e7 | – | 1.62e7 | 1.75e7
Lk6 | 2 | 3.52e7 | 4.05e7 | – | 1.59e7 | 1.86e7
asRNA:CR43426 | 1 | 3.59e7 | 3.04e7 | – | 1.83e7 | 1.44e7
PIG-Wa | 1 | 4.08e7 | 3.22e7 | – | 1.80e7 | 1.52e7
